For one series, the system named is Inf-A. In words: One-step immunoassay detection of Inf-A with switching-peptide-bound binding antibody (FIG. 18, 20B). More on the design: species or system Influenza A. The settings on record: anti-Inf-A binding antibody bound to the peptide, in PBS; H2 quenched with TQ2, L1 quenched with TQ1.
For another series, the system named is Inf-B. Description: One-step immunoassay detection of Inf-B with switching-peptide-bound binding antibody (FIG. 19, 20D). The settings on record: anti-Inf-B binding antibody bound to the peptide, in PBS; H2 labeled with FAM, L1 labeled with TAMRA. The source says:
Therefore, an antibody bound to the L1 peptide or the H2 peptide may be used for selective detection of the Inf-B.
Therefore, binding antibodies bound to the two types of peptides may have similar responses upon detection of Inf-A.
In addition, since it can be confirmed that the baseline is maintained in the experiment with CoV strain 229E, which is a negative control, the immunoassay based on the two types of binding antibodies may be used to detect Inf-B in actual samples.
Therefore, the immunoassay device using the switching peptide according to the present disclosure may sensitively detect Inf-B in a much wider detection range than conventional rapid tests, and the one-step immunoassay method according to the present disclosure may be used for much more sensitive detection of Inf-A and Inf-B in the entire detection range compared to conventional rapid tests.

As to “VYYCAREPTGTGIYFDVWGK [H2, VYYCA REPTG TGIYF DVWGK]”, the “limit of detection (LOD)” value in the series with Inf-A is reported as 0.02 ng/mL; with Inf-B, 0.04 ng/mL.
Consider “TYLEWYPQKPGQSPKLLIYK [L1, TYLEW YPQKP GQSPK LLIYK]”, for which the “limit of detection (LOD)” value is reported as 0.15 ng/mL in the series on Inf-A and 0.26 ng/mL in the series with Inf-B.

Values taken from US20250341517A1, “SWITCHING PEPTIDE, IMMUNOASSAY DEVICE COMPRISING SAME, AND IMMUNOASSAY METHOD USING SAME” (OPTOLANE TECHNOLOGIES INC., priority 2021, published 2025).
